# Source: PubChem BioAssay AID504444 (National Center for Advancing Translational Sciences (NCATS), 2011)
# Several values for one entry are separate records, joined by “and”; a condition that tells them apart may be missing. Equal values may be shown once. Out of some 360,000 compounds screened, about 7,500 (2.1%) were called active. The inconclusive results got no clear call from the source; some entries with a clear call stand among them for comparison. Calls come from the whole dose curve; as a rule, active = well fitted inhibition curve with a large enough effect; inconclusive = small, poorly fitted or top-dose-only effect, or effect the other way; inactive = flat fitted curve, though single readings scatter. Potencies beside an inconclusive call are fits to weak or partial responses and may not hold up.
# Experiment: Nrf2 qHTS screen for inhibitors; note: nearly all actives have a fitted effect of over 60% in size
# Conditions: A549 ARE-Fluc reporter, luciferase luminescence, 18-24 h; activity change, negative = inhibition: at 46 µM (top of the series)
# Method in brief: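 In this cell-based qHTS, ARE-driven firefly luciferase in A549 cells reports Nrf2 activity; the luminescent signal after BugLite lysis is the measured value, with a prior CellTiter-Fluor read for cell health.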
# % is set by controls: 0 for no effect and ±100 for the full control effect; potency is the fitted concentration of half-maximal effect.
Structure (SMILES),"activity change, negative = inhibition",Potency
COc1ccc2[nH]c3c(c2c1)CCNC3=O,inactive: -9.42%,–
Cc1ccc(CNC(=O)Cn2c3ncccc3c(=O)n2-c2ccc(C)cc2)cc1,–,"inconclusive: 18.4 µM [activator, partial curve, poor fit]"
O=C(C1CCC1)N(CCc1ccccc1)Cc1nc2ccccc2c(=O)[nH]1,–,"inconclusive: 2.31 µM [falling, full curve, poor fit]"
N#Cc1cc([N+](=O)[O-])ccc1N1CCN(c2ccccc2O)CC1,–,"inconclusive: 1.84 µM [falling, partial curve, poor fit]"
CC(C)c1cc(-c2nc(-c3cccc(Cl)c3)no2)n[nH]1,–,"inconclusive: 32.6 µM [activator, single point]"
O=C(NCCc1nc2ccccc2n1CCOc1ccc2ccccc2c1)C1CCCCC1,–,"inconclusive: 29.1 µM [falling, single point]"
COc1ccc(NC(=O)CSc2nnc(COc3ccccc3)n2Cc2ccco2)cc1OC,–,"inconclusive: 29.1 µM [falling, partial curve, poor fit]"
CC(=O)c1sc(NC(=O)CCS(=O)(=O)c2ccccc2)nc1C,–,active: 20.6 µM
O=C(C[n+]1cccc(/C=N/O)c1)N1CCCc2ccccc21,inactive: -3.42%,–
Cn1c(=O)n(C)c2cc(NC(=O)COc3ccc(Cl)cc3)ccc21,–,active: 16.4 µM
Cc1ccc(NC(=O)CN2C(=O)N/C(=C/c3cc(C)n(-c4ccc(C(=O)O)cc4)c3C)C2=O)cc1,inactive: 21.4%,–
COc1cc(NC(=O)CSc2nc(=O)n(CCCN3CCOCC3)c3c2CCC3)cc(OC)c1,inactive: 8.39%,–
Cc1ccc(CS(=O)(=O)c2ncc(Cl)c(C(=O)Nc3ccc(OC(F)F)cc3)n2)cc1,–,"inconclusive: 25.9 µM [falling, single point]"
COc1ccc(C(CC(=O)Nc2ccc(Br)cn2)N2Cc3ccccc3C2=O)cc1 (stereo not drawn),–,"inconclusive: 5.8 µM [activator, partial curve, poor fit]"
CCCCCCn1c(=O)c(C(=O)N/N=C/c2cccc(F)c2)c(O)c2ccccc21,–,"inconclusive: 0.731 µM [activator, full curve, poor fit]"
O=C(N[C@H]1CCC(=O)N([C@H](CSc2ccccc2)Cc2ccccc2)CC1)OCc1ccccc1,–,"inconclusive: 20.6 µM [falling, partial curve, poor fit]"
COc1ccccc1CCNC(=O)C1CCN(c2nnc(C)c3c(C)n(-c4ccc(C)cc4)nc23)CC1,–,"inconclusive: 4.61 µM [activator, full curve, poor fit] and inconclusive: 18.4 µM [activator, single point]"
O=[N+]([O-])c1ccc(O)c(-c2ccnc3cc(-c4ccccc4)nn23)c1,–,active: 18.4 µM
COc1ccc2c(c1)CCc1cnc(N)nc1-2,–,"inconclusive: 23.1 µM [activator, single point]"
Cn1c(C(=O)NCc2cccc(Cl)c2)cc2oc3ccccc3c21,–,"inconclusive: 11.6 µM [activator, partial curve]"
COc1ccc(-n2c(=S)[nH]c3cc(C(=O)NCCCN4CCCC4=O)ccc3c2=O)c(OC)c1,–,"inconclusive: 0.103 µM [activator, full curve, poor fit]"

Structure (SMILES),"activity change, negative = inhibition",Potency
Cc1ccc(C(C(=O)NCc2ccccc2)N(Cc2cccs2)C(=O)c2ccc3c(c2)OCCO3)cc1 (stereo not drawn),–,"inconclusive: 10.3 µM [falling, partial curve, poor fit]"
CC(=O)c1ccc(N2CCN(C(=O)CCCn3c(=O)[nH]c4ccsc4c3=O)CC2)cc1,–,"inconclusive: 18.4 µM [activator, single point]"
NN/C(=C\[N+](=O)[O-])Nc1ccc(Cl)cc1,–,"inconclusive: 6.51 µM [activator, partial curve, poor fit]"
COc1ccc([N+](=O)[O-])cc1NC(=O)c1csc(C)c1,–,"inconclusive: 29.1 µM [activator, single point]"
Cc1nc2cc(Cl)c(Cl)cc2n1CCCO,inactive: -17.7%,–
Cc1ccc(N(C(C)C(=O)Nc2cc(Cl)ccc2Oc2ccccc2)S(C)(=O)=O)cc1 (stereo not drawn),–,active: 20.6 µM
Cc1ccc(NC(=O)CN2C(=O)CC(c3ccc(C)c(C)c3)=Nc3ccccc32)cc1,inactive: -4.63%,–
COc1ccccc1OCC(=O)Nc1ccc(S(=O)(=O)N2CCCC2)cc1,inactive: 1%,–
CCC(CC)C(=O)Nc1cc(-c2nc3cccnc3s2)ccc1C,–,"inconclusive: 25.9 µM [activator, single point]"
Cc1cc(C(=O)O)ccc1-c1ccc(/C=C2\NC(=O)N(Cc3ccccc3Cl)C2=O)o1,–,"inconclusive: 29.1 µM [falling, single point]"
O/C(=C\Sc1nnc(Cc2ccccc2)o1)c1ccc(Br)cc1,–,"inconclusive: 0.326 µM [falling, partial curve, poor fit]"
CCOC(=O)c1cc(-c2ccccc2)sc1NC(=O)COC(=O)c1ccc(Cl)c(S(N)(=O)=O)c1,–,active: 23.1 µM
CCCN(C(=O)COC(=O)CNS(=O)(=O)c1ccc(NC(C)=O)cc1)C1CCS(=O)(=O)C1 (stereo not drawn),inactive: 12.7%,–
CCOC(=O)c1sc2ncn(CC(=O)NCC3CCCO3)c(=O)c2c1C (stereo not drawn),–,"inconclusive: 1.3 µM [falling, full curve, poor fit]"
O=C(NC1CCCCC1)C(c1ccncc1)N(CC1CCCO1)C(=O)C(F)(F)F (stereo not drawn),–,"inconclusive: 29.1 µM [falling, single point]"
CC1(c2ccccc2)NC(=O)N(Cc2ccc([N+](=O)[O-])cc2)C1=O (stereo not drawn),inactive: -4.96%,–
Cc1ccc(S(=O)(=O)N(C)C[C@H]2Oc3ccc(NC(=O)C4CCCCC4)cc3C(=O)N([C@H](C)CO)C[C@H]2C)cc1,–,"inconclusive: 9.2 µM [activator, partial curve]"
Cn1c(N)c(S(=O)(=O)NCc2ccccc2Cl)c(=O)n(C)c1=O,–,"inconclusive: 23.1 µM [falling, single point]"
COc1ccc(Cl)cc1NC(=O)CSc1nnc(Cc2cccn2C)n1-c1ccc(F)cc1,–,"inconclusive: 18.4 µM [falling, partial curve, poor fit]"
COc1ccc(-n2c(=S)[nH]c3cc(C(=O)O)ccc3c2=O)cc1,–,"inconclusive: 5.17 µM [activator, full curve, poor fit]"
CSc1nn(CC(=O)Nc2cc(C)ccc2C)c(N)c1S(=O)(=O)c1ccccc1,–,active: 20.6 µM

# Already shown: an excerpt of the list.
Structure (SMILES),"activity change, negative = inhibition",Potency
CCOC(=O)c1cc(-c2ccccc2)sc1NC(=O)COC(=O)c1ccc(Cl)c(S(N)(=O)=O)c1,–,active: 23.1 µM
CCCN(C(=O)COC(=O)CNS(=O)(=O)c1ccc(NC(C)=O)cc1)C1CCS(=O)(=O)C1 (stereo not drawn),inactive: 12.7%,–
CCOC(=O)c1sc2ncn(CC(=O)NCC3CCCO3)c(=O)c2c1C (stereo not drawn),–,"inconclusive: 1.3 µM [falling, full curve, poor fit]"

# Following part:

Structure (SMILES),"activity change, negative = inhibition",Potency
CN=c1nc(-c2ccccc2)n(-c2ccccc2)s1,–,"inactive and inconclusive: 23.1 µM [activator, single point]"
COc1ccc2oc(=O)c(-c3nnc(N)s3)cc2c1,–,"inconclusive: 7.31 µM [activator, partial curve]"
O=C(Nc1nnc(S(=O)(=O)N2CCCCCC2)s1)c1ccc(Cl)cc1,–,"inconclusive: 2.59 µM [activator, full curve]"
CC(C)(C)N(Cc1ccc2c(c1)OCO2)C(=O)/C=C\S(=O)c1ccccc1 (stereo not drawn),–,"inconclusive: 20.6 µM [falling, partial curve]"
Cc1ccc2nc(NC(=O)C3=NN(c4ccccc4)C(=O)CC3)sc2c1,–,"inconclusive: 2.91 µM [activator, partial curve]"
Cc1ccc(OCC(=O)Nc2ccc(O)c(C(=O)O)c2)cc1C,inactive: -17%,–
Cc1nn(-c2ccc(F)cc2)c2sc(C(=O)OCC(=O)N3CCC(C)CC3)cc12,–,"inconclusive: 20.6 µM [falling, partial curve, poor fit]"
Cn1cccc1-c1cc(C(=O)N/N=C/C=C/c2ccccc2)[nH]n1,–,"inconclusive: 23.1 µM [falling, partial curve, poor fit]"
Cc1c(NC(=O)c2n[nH]c(=O)c3ccccc23)c(=O)n(-c2ccccc2)n1C,–,"inconclusive: 2.59 µM [activator, partial curve, poor fit]"
CCOC(=O)/C(C#N)=C1/C=CN(c2ccccc2)C=N1,–,"inconclusive: 25.9 µM [activator, single point]"
CCCOc1ccc(C2CC(=O)Nc3cc(OC)c(OC)cc32)cc1 (stereo not drawn),–,"inconclusive: 32.6 µM [falling, single point]"
COc1ccc(Cl)cc1NC(=O)C(C)N(C)Cc1ccc(C(F)(F)F)cc1 (stereo not drawn),inactive: -25.5%,–
CC(C)CC(=O)OCc1cc(=O)n2nc(C3CCCCC3)sc2n1,–,"inconclusive: 14.6 µM [activator, partial curve]"
O=C(/C=C/c1cn(-c2ccccc2)nc1-c1cccc(Cl)c1)N1CCN(c2ccccn2)CC1,–,"inconclusive: 16.4 µM [falling, single point]"
Cc1cc(N2CCCCC2)nc2ccc(NC(=O)CCC(=O)NCCC(C)C)cc12,–,"inconclusive: 6.51 µM [activator, full curve]"
COc1ccc(Nc2ncnc3ccc(C)cc23)cc1,–,"inconclusive: 16.4 µM [falling, partial curve]"
CCN(c1cccc(C)c1)S(=O)(=O)c1c(C)nc2sc(C)cn2c1=O,–,"inconclusive: 25.9 µM [falling, single point]"
CCN1C(=O)c2ccccc2S(=O)c2ccc(C(=O)NCc3ccc(Cl)cc3)cc21 (stereo not drawn),–,"inconclusive: 16.4 µM [falling, single point]"
CN(C(=O)CNC(=O)c1ccc(Br)o1)C1CCCCC1,–,"inconclusive: 16.4 µM [activator, partial curve, poor fit]"
Cc1noc(C)c1S(=O)(=O)Nc1ccc(C(=O)N2CCN(c3ccc(Cl)cc3)CC2)cc1,–,"inconclusive: 29.1 µM [falling, single point]"
Nn1c(SCc2c(F)cccc2F)nnc1-c1ccccn1,–,"inconclusive: 20.6 µM [activator, single point]"
